This is an account of results in PMC2062786.

No constants are given. Whether binding was seen depends on the method and setting. In cells and extracts the contact can be indirect. Some entries that bind do so weakly or less than the wild type.

The target in this assay is T1, vascular endothelial (VE)-cadherin (human (endogenous in HUVEC)), P33151.
T1 chain: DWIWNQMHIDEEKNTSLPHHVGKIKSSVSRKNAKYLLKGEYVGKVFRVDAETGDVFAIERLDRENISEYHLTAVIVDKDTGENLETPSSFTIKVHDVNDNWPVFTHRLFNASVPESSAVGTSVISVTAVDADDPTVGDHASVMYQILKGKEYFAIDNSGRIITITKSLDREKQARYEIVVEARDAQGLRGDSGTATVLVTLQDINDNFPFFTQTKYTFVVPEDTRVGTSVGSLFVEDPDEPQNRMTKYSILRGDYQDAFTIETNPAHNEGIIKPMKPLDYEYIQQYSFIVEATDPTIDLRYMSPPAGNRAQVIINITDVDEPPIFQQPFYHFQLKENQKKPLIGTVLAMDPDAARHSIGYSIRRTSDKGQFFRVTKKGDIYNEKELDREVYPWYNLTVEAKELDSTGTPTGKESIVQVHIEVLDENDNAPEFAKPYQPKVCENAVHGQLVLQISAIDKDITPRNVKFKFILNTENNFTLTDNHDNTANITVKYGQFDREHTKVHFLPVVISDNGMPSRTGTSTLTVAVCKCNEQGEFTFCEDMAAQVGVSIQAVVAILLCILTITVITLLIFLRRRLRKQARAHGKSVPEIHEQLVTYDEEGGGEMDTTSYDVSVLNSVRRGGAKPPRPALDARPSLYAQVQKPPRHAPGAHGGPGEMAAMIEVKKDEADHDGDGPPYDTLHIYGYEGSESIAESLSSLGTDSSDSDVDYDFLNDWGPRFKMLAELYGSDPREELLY
Kind of assay: co-IP; immunoprecipitation of VE-cadherin from HUVEC cultured with MDA MB231 cells for 0 min, 5 min, 30 min and 1 h, then immunoblotting. Particulars: remark: other sources report otherwise. (Immunoblotting shows a protein as a band on a membrane.)

B1: β-catenin, P35222 1-781 (protein)
chain: MATQADLMELDMAMEPDRKAAVSHWQQQSYLDSGIHSGATTTAPSLSGKGNPEEEDVDTSQVLYEWEQGFSQSFTQEQVADIDGQYAMTRAQRVRAAMFPETLDEGMQIPSTQFDAAHPTNVQRLAEPSQMLKHAVVNLINYQDDAELATRAIPELTKLLNDEDQVVVNKAAVMVHQLSKKEASRHAIMRSPQMVSAIVRTMQNTNDVETARCTAGTLHNLSHHREGLLAIFKSGGIPALVKMLGSPVDSVLFYAITTLHNLLLHQEGAKMAVRLAGGLQKMVALLNKTNVKFLAITTDCLQILAYGNQESKLIILASGGPQALVNIMRTYTYEKLLWTTSRVLKVLSVCSSNKPAIVEAGGMQALGLHLTDPSQRLVQNCLWTLRNLSDAATKQEGMEGLLGTLVQLLGSDDINVVTCAAGILSNLTCNNYKNKMMVCQVGGIEALVRTVLRAGDREDITEPAICALRHLTSRHQEAEMAQNAVRLHYGLPVVVKLLHPPSHWPLIKATVGLIRNLALCPANHAPLREQGAIPRLVQLLVRAHQDTQRRTSMGGTQQQFVEGVRMEEIVEGCTGALHILARDVHNRIVIRGLNTIPLFVQLLYSPIENIQRVAAGVLCELAQDKEAAEAIEAEGATAPLTELLHSRNEGVATYAAAVLFRMSEDKPQDYKKRLSVELTSSLFRTEPMAWNETADLGLDIGAQGEPLGYRQDDPSYRSFHSGGYGQDALGMDPMMEHEMGGHHPGADYPVDGLPDLGHAQDLMDGLPPGDSNQLAWFDTDL
In the case of B1, the binding result is “binds”.
